This is an account of results in publication doi:10.1101/2022.01.01.474694.

By UniProt entry, the sequences of proteins in these tests, tags left out.
UniProt P02730: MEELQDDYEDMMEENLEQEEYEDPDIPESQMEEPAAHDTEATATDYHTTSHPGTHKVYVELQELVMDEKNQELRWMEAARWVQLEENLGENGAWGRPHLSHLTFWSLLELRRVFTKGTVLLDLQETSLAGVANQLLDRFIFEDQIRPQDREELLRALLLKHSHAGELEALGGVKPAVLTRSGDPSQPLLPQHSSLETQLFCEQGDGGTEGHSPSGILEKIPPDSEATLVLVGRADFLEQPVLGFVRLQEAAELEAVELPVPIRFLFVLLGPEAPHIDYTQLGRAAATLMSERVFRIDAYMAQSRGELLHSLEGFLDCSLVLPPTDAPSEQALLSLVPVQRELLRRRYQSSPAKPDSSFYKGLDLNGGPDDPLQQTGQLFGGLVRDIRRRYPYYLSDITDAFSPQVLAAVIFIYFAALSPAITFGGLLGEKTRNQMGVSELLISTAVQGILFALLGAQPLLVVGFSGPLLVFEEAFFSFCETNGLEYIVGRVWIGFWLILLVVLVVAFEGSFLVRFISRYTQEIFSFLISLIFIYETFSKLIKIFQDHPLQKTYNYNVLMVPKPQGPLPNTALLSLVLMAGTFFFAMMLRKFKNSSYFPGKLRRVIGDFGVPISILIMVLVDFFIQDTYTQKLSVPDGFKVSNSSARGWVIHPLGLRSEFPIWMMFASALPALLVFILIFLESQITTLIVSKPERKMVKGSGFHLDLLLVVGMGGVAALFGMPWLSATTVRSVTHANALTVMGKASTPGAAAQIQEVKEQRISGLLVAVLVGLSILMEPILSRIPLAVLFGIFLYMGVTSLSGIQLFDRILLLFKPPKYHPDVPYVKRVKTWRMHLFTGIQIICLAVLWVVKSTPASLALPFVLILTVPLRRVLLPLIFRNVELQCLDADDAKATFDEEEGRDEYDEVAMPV

Results are given in words; binding and its absence hold for the method and conditions named. Binding seen in cells or lysates may run through a third protein. Some binding calls cover weakened binding; strength is not graded here.

The target in the experiment is Band 3 (RBC integral membrane protein) (human (endogenous in RBCs)) (UniProt P02730). The experiment can be described thus: proximity ligation.

B1: toll-like receptor 7 (TLR7) (receptor, UniProt Q9NYK1 27-1049)
chain: ARWFPKTLPCDVTLDVPKNHVIVDCTDKHLTEIPGGIPTNTTNLTLTINHIPDISPASFHRLDHLVEIDFRCNCVPIPLGSKNNMCIKRLQIKPRSFSGLTYLKSLYLDGNQLLEIPQGLPPSLQLLSLEANNIFSIRKENLTELANIEILYLGQNCYYRNPCYVSYSIEKDAFLNLTKLKVLSLKDNNVTAVPTVLPSTLTELYLYNNMIAKIQEDDFNNLNQLQILDLSGNCPRCYNAPFPCAPCKNNSPLQIPVNAFDALTELKVLRLHSNSLQHVPPRWFKNINKLQELDLSQNFLAKEIGDAKFLHFLPSLIQLDLSFNFELQVYRASMNLSQAFSSLKSLKILRIRGYVFKELKSFNLSPLHNLQNLEVLDLGTNFIKIANLSMFKQFKRLKVIDLSVNKISPSGDSSEVGFCSNARTSVESYEPQVLEQLHYFRYDKYARSCRFKNKEASFMSVNESCYKYGQTLDLSKNSIFFVKSSDFQHLSFLKCLNLSGNLISQTLNGSEFQPLAELRYLDFSNNRLDLLHSTAFEELHKLEVLDISSNSHYFQSEGITHMLNFTKNLKVLQKLMMNDNDISSSTSRTMESESLRTLEFRGNHLDVLWREGDNRYLQLFKNLLKLEELDISKNSLSFLPSGVFDGMPPNLKNLSLAKNGLKSFSWKKLQCLKNLETLDLSHNQLTTVPERLSNCSRSLKNLILKNNQIRSLTKYFLQDAFQLRYLDLSSNKIQMIQKTSFPENVLNNLKMLLLHHNRFLCTCDAVWFVWWVNHTEVTIPYLATDVTCVGPGAHKGQSVISLDLYTCELDLTNLILFSLSISVSLFLMVMMTASHLYFWDVWYIYHFCKAKIKGYQRLISPDCCYDAFIVYDTKDPAVTEWVLAELVAKLEDPREKHFNLCLEERDWLPGQPVLENLSQSIQLSKKTVFVMTDKYAKTENFKIAFYLSHQRLMDEKVDVIILIFLEKPFQKSKFLQLRKRLCGSSVLEWPTNPQAHPYFWQCLKNALATDNHVAYSQVFKETV
With B1, the binding entry is listed as “binds”.
